Measured values as given in article PMC8880992.
These are yes or no findings as the source states them, for the method shown. Binding seen in cells or lysates may run through a third protein. These calls come from enrichment with a bait or labelling near it, and not all partners need be listed.

Amino acid sequences for entries named in this document (tags omitted).
UniProt Q02248: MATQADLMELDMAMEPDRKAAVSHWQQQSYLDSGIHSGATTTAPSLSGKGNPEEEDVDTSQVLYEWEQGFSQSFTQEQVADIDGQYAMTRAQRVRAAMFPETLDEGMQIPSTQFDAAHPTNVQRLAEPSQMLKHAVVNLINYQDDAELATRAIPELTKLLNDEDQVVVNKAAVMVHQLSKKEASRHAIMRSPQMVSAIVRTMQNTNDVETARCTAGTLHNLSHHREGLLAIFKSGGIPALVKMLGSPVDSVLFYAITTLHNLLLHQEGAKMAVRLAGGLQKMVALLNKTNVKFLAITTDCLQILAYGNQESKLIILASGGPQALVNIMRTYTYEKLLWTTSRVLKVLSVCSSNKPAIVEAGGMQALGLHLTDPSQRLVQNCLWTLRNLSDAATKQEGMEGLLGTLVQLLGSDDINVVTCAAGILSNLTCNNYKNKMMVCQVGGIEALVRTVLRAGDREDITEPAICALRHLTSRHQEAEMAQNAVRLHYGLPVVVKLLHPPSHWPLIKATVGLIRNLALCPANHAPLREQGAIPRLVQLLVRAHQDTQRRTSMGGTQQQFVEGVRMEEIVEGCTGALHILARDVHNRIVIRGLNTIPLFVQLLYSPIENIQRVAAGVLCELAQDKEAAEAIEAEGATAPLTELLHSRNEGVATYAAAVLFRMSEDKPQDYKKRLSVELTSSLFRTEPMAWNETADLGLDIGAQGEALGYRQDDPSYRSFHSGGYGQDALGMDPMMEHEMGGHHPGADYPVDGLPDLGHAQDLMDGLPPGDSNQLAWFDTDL
UniProt Q80X90: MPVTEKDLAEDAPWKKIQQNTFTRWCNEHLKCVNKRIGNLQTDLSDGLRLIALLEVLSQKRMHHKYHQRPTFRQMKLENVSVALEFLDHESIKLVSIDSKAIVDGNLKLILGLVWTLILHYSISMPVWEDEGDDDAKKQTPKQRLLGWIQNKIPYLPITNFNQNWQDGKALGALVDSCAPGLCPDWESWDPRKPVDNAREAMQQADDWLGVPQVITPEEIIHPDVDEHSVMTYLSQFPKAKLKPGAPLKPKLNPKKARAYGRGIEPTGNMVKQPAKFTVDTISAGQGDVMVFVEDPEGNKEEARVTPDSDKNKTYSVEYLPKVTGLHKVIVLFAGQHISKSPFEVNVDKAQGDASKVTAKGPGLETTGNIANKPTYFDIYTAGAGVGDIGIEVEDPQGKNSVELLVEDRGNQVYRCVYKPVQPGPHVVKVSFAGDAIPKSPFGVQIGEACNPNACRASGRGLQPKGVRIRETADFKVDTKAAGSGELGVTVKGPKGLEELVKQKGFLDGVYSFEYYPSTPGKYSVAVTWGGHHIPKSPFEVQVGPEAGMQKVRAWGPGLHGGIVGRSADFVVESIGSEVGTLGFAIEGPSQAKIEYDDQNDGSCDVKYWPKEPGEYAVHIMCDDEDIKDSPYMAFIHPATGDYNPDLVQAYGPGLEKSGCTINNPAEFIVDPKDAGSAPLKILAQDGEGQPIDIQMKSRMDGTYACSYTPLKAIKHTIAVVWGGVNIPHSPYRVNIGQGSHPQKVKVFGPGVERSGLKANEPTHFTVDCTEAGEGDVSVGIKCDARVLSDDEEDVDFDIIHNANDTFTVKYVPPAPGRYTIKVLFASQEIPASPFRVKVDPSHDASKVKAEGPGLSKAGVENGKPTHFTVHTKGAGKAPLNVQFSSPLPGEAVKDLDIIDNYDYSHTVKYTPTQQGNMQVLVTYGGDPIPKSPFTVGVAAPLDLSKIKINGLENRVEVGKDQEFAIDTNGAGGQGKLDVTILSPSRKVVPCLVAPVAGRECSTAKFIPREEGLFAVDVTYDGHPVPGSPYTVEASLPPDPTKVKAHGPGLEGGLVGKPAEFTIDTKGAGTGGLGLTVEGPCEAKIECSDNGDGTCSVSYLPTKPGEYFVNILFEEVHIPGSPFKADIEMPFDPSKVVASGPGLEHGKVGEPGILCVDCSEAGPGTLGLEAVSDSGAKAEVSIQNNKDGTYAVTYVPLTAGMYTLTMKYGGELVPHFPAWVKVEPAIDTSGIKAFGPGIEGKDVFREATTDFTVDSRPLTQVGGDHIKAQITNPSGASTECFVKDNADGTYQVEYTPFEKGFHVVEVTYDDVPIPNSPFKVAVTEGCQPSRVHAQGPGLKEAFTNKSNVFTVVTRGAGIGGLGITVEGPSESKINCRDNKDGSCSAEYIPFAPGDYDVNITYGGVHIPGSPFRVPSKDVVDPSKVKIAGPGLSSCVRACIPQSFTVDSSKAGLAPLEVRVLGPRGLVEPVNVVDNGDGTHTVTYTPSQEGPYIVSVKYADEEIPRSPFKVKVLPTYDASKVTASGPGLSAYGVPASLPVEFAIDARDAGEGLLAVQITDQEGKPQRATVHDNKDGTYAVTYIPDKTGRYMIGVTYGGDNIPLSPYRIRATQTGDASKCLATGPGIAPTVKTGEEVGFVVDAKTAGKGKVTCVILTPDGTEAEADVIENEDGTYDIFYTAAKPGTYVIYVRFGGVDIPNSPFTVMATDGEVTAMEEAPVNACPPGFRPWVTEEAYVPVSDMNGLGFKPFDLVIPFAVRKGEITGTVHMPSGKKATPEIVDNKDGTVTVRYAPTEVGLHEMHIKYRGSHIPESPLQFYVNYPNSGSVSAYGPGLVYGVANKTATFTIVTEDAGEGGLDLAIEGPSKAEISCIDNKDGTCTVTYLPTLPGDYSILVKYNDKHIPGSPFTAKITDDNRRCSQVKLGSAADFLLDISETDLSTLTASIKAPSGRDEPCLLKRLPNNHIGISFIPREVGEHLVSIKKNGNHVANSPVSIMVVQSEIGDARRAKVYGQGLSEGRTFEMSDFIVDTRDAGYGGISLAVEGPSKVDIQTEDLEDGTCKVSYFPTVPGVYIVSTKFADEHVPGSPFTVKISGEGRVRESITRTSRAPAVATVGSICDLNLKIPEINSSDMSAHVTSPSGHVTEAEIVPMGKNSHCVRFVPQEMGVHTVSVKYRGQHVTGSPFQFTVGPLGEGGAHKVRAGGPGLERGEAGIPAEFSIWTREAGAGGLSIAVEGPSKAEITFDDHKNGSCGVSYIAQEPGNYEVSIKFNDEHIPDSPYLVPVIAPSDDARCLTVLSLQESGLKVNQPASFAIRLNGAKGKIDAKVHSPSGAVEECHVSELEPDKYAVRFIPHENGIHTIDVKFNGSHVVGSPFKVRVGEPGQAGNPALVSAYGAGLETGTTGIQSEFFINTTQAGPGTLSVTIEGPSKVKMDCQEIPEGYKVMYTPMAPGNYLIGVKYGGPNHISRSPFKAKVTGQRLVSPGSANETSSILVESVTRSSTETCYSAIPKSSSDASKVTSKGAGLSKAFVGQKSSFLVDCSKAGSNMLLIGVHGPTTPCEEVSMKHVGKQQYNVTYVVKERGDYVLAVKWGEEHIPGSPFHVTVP

Target: T1, endogenous Mks1 of mIMCD3 cells (mouse (endogenous in mIMCD3)) (UniProt Q5SW45)
T1 sequence: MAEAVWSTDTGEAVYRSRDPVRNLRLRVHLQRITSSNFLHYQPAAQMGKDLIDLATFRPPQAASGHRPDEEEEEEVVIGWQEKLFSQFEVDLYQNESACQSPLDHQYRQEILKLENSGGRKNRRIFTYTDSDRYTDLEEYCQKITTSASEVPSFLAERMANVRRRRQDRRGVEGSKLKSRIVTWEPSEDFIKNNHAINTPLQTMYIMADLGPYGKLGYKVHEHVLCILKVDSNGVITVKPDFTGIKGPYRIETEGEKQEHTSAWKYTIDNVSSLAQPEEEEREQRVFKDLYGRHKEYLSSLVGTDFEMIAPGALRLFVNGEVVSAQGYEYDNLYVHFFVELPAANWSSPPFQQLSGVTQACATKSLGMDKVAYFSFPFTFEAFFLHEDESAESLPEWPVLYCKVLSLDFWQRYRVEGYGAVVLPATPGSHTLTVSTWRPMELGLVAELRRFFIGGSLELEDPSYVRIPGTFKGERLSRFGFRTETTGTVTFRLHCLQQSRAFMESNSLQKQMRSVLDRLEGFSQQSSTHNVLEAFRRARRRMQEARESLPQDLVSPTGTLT
Test: affinity purification with mass spectrometry; anti-MKS1 immunoprecipitation from shScr and shUbe2e1 mIMCD3 cells (proliferating, ciliated, undergoing ciliary resorption); LC-MS/MS

Substance | binding
endogenous β-catenin of mIMCD3 cells (from UniProt Q02248 1-781) | binds
filamin B (Flnb) of mIMCD3 cells (from UniProt Q80X90 1-2602) | binds
